This note sets out measurements from paper PMC10450662.

Sequences of proteins named here, by UniProt entry; tags and fusion partners are left off. A change or cut given only in a name is not applied to a line headed by its entry.
UniProt Q07335: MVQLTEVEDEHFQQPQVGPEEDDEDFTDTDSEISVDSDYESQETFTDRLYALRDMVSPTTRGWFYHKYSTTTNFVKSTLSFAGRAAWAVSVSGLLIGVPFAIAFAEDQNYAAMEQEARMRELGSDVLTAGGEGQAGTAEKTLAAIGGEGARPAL
UniProt V5ILY4: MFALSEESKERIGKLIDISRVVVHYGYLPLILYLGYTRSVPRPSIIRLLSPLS

Results are given in words; binding and its absence hold for the method and conditions named. Binding seen in cells or lysates may run through a third protein. Binding can be weak; no strength is given.

This assay deals with Tom22 of Neurospora crassa with a hexahistidine tag (Neurospora crassa) (UniProt Q07335). The experiment in a line: pull-down + SEC; His6-Tom22 held on a nickel-NTA column from outer membrane vesicles of N. crassa GR-107 solubilised in 1% GDN (10 mM MOPS pH 7.0, 50 mM potassium acetate, 50 mM imidazole), eluted with 300 mM imidazole, then Superdex 200 Increase; subunits seen by SDS-PAGE with Coomassie staining.

“Tom7 of the Neurospora crassa TOM complex (from UniProt V5ILY4)”: the binding entry was “binds”.
